For one compound, logP results are on record in ChEMBL document CHEMBL1142801, “Bradykinin B1 antagonists: SAR studies in the 2,3-diaminopyridine series” (Bioorg Med Chem Lett, 2005).

The series in a line: Partition coefficient (logP). Conditions: octanol/water.

Take `COC(=O)c1ccccc1N1CCC(O)(CNc2nccc(C)c2NC(=O)CC#N)CC1`: the logP (usually a log measure of how a compound divides between an organic and an aqueous phase) came out at 2.1.
